{"source": "PubChem BioAssay AID204", "about": "(DTP/NCI, 2004)", "system": "BDF1 mice, P288 methotrexate-resistant leukemia, survival T/C", "assay": "NCI In Vivo Anticancer Drug Screen. Data for tumor model P288 Lymphocytic Leukemia resistant to methotrexate; NSC 740 (intraperitoneal) in B6D2F1 (BDF1) mice", "details": "T/C endpoint: median survival time, schedule: Q01DX010 (ip), vehicle: saline, higher T/C = longer survival", "description": "The antitumor activity of compounds was measured in mice bearing transplantable tumors. Survival or tumor size were measured and the results are expressed as the measurement made in the treated group (T) divided by the measurement made in the vehicle treated control group (C). The tumor model used in this assay is P288 Lymphocytic Leukemia resistant to methotrexate; NSC 740 (intraperitoneal) in B6D2F1 (BDF1) mice", "note": "The list shows only some results of the screen, not a fair sample: it gathers some chemical classes. Not every dose and run of a compound is shown. T/C: endpoint of the treated group in % of that of the vehicle group. Some entries give survivors of the animals treated and no T/C: the source holds a T/C of zero for them, seemingly a mark for toxic or unscored doses. Some doses without a T/C left all or most animals alive at the check, yet need not have been tolerated: the source hardly ever lists a survival T/C far under the control, and the zero likely stands for such cases as well. Counts of survivors are from the toxicity check (mostly the fifth day) where no day follows; animals may have died later. Schedule codes are those of the source, read here as Q, the interval in days (D) or hours (H), X, the number of doses. Where survival is the endpoint, the PubChem record calls one and a half times the control and up active, and a quarter to a half above the control has no call in these data; cut-offs in other NCI protocols can differ. Some T/C values are followed by the survivors on the day toxicity was checked, most often the fifth; where neither a count nor a note follows, no animal had died by that day. Some entries were tested several times; the values are given in rising order."}
{"smiles": "CN(N=O)C(=N)N[N+](=O)[O-]", "values": [{"measurement": "T/C", "setting": "dose: 8.0 mg/kg/injection", "value": "140 % of control"}, {"measurement": "survivor count", "setting": "dose: 8.0 mg/kg/injection", "value": "6 of 6"}, {"measurement": "T/C", "setting": "dose: 16.0 mg/kg/injection", "value": "110 and 135 % of control"}, {"measurement": "T/C", "setting": "dose: 32.0 mg/kg/injection", "value": "95 % of control"}, {"measurement": "survivor count", "setting": "dose: 32.0 mg/kg/injection", "value": "6 of 6"}, {"measurement": "survivor count", "setting": "dose: 64.0 mg/kg/injection", "value": "6 of 6"}]}
{"smiles": "Cc1[nH]c(=O)[nH]c(=O)c1N(CCCl)CCCl", "values": [{"measurement": "T/C", "setting": "dose: 0.5 mg/kg/injection", "value": "105 % of control"}, {"measurement": "T/C", "setting": "dose: 1.0 mg/kg/injection", "value": "155 % of control"}, {"measurement": "survivor count", "setting": "dose: 2.0 mg/kg/injection", "value": "6 of 6"}, {"measurement": "survivor count", "setting": "dose: 4.0 mg/kg/injection", "value": "6 of 6"}]}
{"smiles": "NC1CCCCC1.O=P(O)(N(CCCl)CCCl)N1CC1", "values": [{"measurement": "T/C", "setting": "dose: 1.25 mg/kg/injection", "value": "119 % of control"}, {"measurement": "T/C", "setting": "dose: 2.5 mg/kg/injection", "value": "108 and 126 % of control [5 of 6 alive]"}, {"measurement": "T/C", "setting": "dose: 5.0 mg/kg/injection", "value": "120 and 134 % of control"}, {"measurement": "T/C", "setting": "dose: 10.0 mg/kg/injection", "value": "145 and 153 % of control"}, {"measurement": "T/C", "setting": "dose: 20.0 mg/kg/injection", "value": "175 % of control"}]}
